Assay results reported in the supplement of paper PMC4604168 (melanoma cell lines).
Some of the results follow. Many values rest on one well or one pass, so single values are uncertain.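 The apoptosis fraction was the count of cleaved-PARP antibody-stained nuclei relative to all DNA-stained nuclei, imaged in 1,536-well plates. Screening doses were set so most cells survived, and baseline and induced cleaved-PARP levels vary greatly across cell lines.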

Columns and labels:
Assay in all cases: cleaved PARP positive nuclei fraction relative to DMSO control; melanoma cells; higher = more apoptosis
Conditions in all cases: library dose: low library concentration; 72 h
WM115 = test system: WM115
WM1716 = test system: WM1716
WM1745 = test system: WM1745
WM3526 = test system: WM3526
WM3619 = test system: WM3619
WM451Lu = test system: WM451Lu

SMILES	cleaved PARP positive nuclei fraction (WM115)	cleaved PARP positive nuclei fraction (WM1716)	cleaved PARP positive nuclei fraction (WM1745)	cleaved PARP positive nuclei fraction (WM3526)	cleaved PARP positive nuclei fraction (WM3619)	cleaved PARP positive nuclei fraction (WM451Lu)
CC(=O)c1c(C)c2cnc(Nc3ccc(N4CCNCC4)cn3)nc2n(C2CCCC2)c1=O [palbociclib] + OCc1c[nH]c2ccccc12 [Indole-3-carbinol] (first compound 0.04 µM, partner dose 0.8 µM)	95.2%	54.4%	101%	54.8%	133%	38.3%
OCCn1cc(-c2cnc3nnn(Cc4ccc5ncccc5c4)c3n2)cn1 + c1cc(-c2cnn3cc(-c4ccc(OCCN5CCCCC5)cc4)cnc23)ccn1 [Dorsomorphin] (first compound 1 µM, partner dose 0.4 µM)	73.3%	93.3%	110%	126%	75.7%	54%
Cc1cc(N2CCOCC2)cc2[nH]c(-c3c(NC[C@@H](O)c4cccc(Cl)c4)cc[nH]c3=O)nc12 + CC(C)CCN1c2nc(Nc3cc(F)c(O)c(F)c3)ncc2N(C)C(=O)C1C [BID1870] (first compound 0.2 µM, partner dose 0.2 µM)	126%	63%	130%	116%	90.9%	108%
Cc1ccc(NC(=O)c2cccc(N(C)C)c2)cc1NC(=O)c1ccc(O)cc1 + CN(NC(=O)CC(=O)NN(C)C(=S)c1ccccc1)C(=S)c1ccccc1 [STA4783] (first compound 2 µM, partner dose 0.006 µM)	180%	171%	218%	67.5%	163%	55.5%
CC(C)(C)c1cnc(CSc2cnc(NC(=O)C3CCNCC3)s2)o1 + COc1ccc2c(c1)CCC1C2CCC2(C)C(NCCCCCCN3C(=O)C=CC3=O)CCC12 [U73122] (first compound 0.01 µM, partner dose 0.4 µM)	40.4%	148%	113%	69.5%	79%	105%
C[C@@H]1CCN(C(=O)CC#N)C[C@@H]1N(C)c1ncnc2[nH]ccc12 + COc1ccc2c(c1)CCC1C2CCC2(C)C(NCCCCCCN3C(=O)C=CC3=O)CCC12 [U73122] (first compound 1 µM, partner dose 0.4 µM)	215%	158%	147%	64%	76.1%	239%
OCCn1cc(-c2cnc3nnn(Cc4ccc5ncccc5c4)c3n2)cn1 + COc1cc2c(Oc3ccc4[nH]c(C)cc4c3F)ncnc2cc1OCCCN1CCCC1 [cediranib] (first compound 1 µM, partner dose 0.4 µM)	127%	152%	106%	36.2%	97.4%	58.2%
Cc1ccc(NC(=O)c2cccc(N(C)C)c2)cc1NC(=O)c1ccc(O)cc1 + NC(=O)Nc1cc(-c2cccc(F)c2)sc1C(=O)N[C@H]1CCCNC1 [AZD7762] (first compound 2 µM, partner dose 0.02 µM)	167%	101%	111%	80.9%	163%	81.8%
Cn1cncc1[C@@](N)(c1ccc(Cl)cc1)c1ccc2c(c1)c(-c1cccc(Cl)c1)cc(=O)n2C [tipifarnib] + O=C1NC(=O)/C(=C/c2ccc(-c3ccc(F)cc3O)o2)S1 [AS252424] (first compound 0.01 µM, partner dose 1 µM)	125%	140%	88.3%	81.8%	275%	57.2%
Cn1c(Nc2ccc(C(F)(F)F)cc2)nc2cc(Oc3ccnc(-c4ncc(C(F)(F)F)[nH]4)c3)ccc21 + CC(C)CCN1c2nc(Nc3cc(F)c(O)c(F)c3)ncc2N(C)C(=O)C1C [BID1870] (first compound 0.08 µM, partner dose 0.2 µM)	595%	124%	321%	137%	301%	45.4%
CO[C@@H]1[C@H](N(C)C(=O)c2ccccc2)C[C@H]2O[C@]1(C)n1c3ccccc3c3c4c(c5c6ccccc6n2c5c31)C(=O)NC4 [Midostaurin] + c1cc(-c2cnn3cc(-c4ccc(OCCN5CCCCC5)cc4)cnc23)ccn1 [Dorsomorphin] (first compound 0.08 µM, partner dose 0.4 µM)	19.6%	59.9%	118%	60.4%	81.9%	90.7%
C#Cc1cccc(Nc2ncnc3cc(OCCOC)c(OCCOC)cc23)c1 [erlotinib] + CN(NC(=O)CC(=O)NN(C)C(=S)c1ccccc1)C(=S)c1ccccc1 [STA4783] (first compound 0.8 µM, partner dose 0.006 µM)	122%	160%	149%	263%	113%	140%
CC(C)(C)c1cnc(CSc2cnc(NC(=O)C3CCNCC3)s2)o1 + COc1ccc(-c2ccc3c(N4CCOCC4)nc(N4C[C@@H](C)O[C@@H](C)C4)nc3n2)cc1CO [KU0063794] (first compound 0.01 µM, partner dose 0.02 µM)	164%	117%	110%	69.3%	126%	72.5%
Clc1ccc(Nc2nnc(Cc3ccncc3)c3ccccc23)cc1 [vatalanib] + N#Cc1c(O)c2c(-c3ccc(-c4ccccc4O)cc3)csc2[nH]c1=O [A769662] (first compound 2 µM, partner dose 2 µM)	204%	167%	97.5%	79.7%	108%	403%
Cc1cc(N2CCOCC2)cc2[nH]c(-c3c(NC[C@@H](O)c4cccc(Cl)c4)cc[nH]c3=O)nc12 + COC(=O)c1sccc1S(=O)(=O)Nc1ccc(Nc2ccccc2)cc1OC [GSK0660] (first compound 0.2 µM, partner dose 1 µM)	125%	31.9%	110%	123%	102%	44.6%
Cc1ccc(NC(=O)c2cccc(N(C)C)c2)cc1NC(=O)c1ccc(O)cc1 + O=C(O)C(=O)Nc1sc2c(c1C(=O)O)CCNC2 [TCS401] (first compound 2 µM, partner dose 1.66667 µM)	236%	115%	120%	82.1%	75.4%	45.5%
OCc1c[nH]c2ccccc12 [Indole-3-carbinol] + Cc1cc([N+](=O)[O-])ccc1NS(=O)(=O)c1cc(Cl)ccc1Cl [FH535] (first compound 0.8 µM, partner dose 1 µM)	90%	208%	75%	218%	92.6%	72.9%
C=CCNC1=C2C[C@@H](C)C[C@H](OC)[C@H](O)[C@@H](C)/C=C(\C)[C@H](OC(N)=O)[C@@H](OC)/C=C\C=C(/C)C(=O)NC(=CC1=O)C2=O [Tanespimycin] + CC1(C)NC(=O)N(c2ccc([N+](=O)[O-])c(C(F)(F)F)c2)C1=O [nilutamide] (first compound 0.002 µM, partner dose 1 µM)	113%	83.3%	80.3%	54.5%	105%	35.3%
Cn1nnc2c(C(N)=O)ncn2c1=O [temozolomide] + C[C@@H]1CCN(C(=O)CC#N)C[C@@H]1N(C)c1ncnc2[nH]ccc12 [CP690550] (first compound 2 µM, partner dose 1 µM)	135%	124%	96.5%	112%	90.8%	45.7%
Cc1nc(Nc2ncc(C(=O)Nc3c(C)cccc3Cl)s2)cc(N2CCN(CCO)CC2)n1 [dasatanib] + NCC(=O)Nc1ccc(-n2nc(C(F)(F)F)cc2-c2ccc3c(ccc4ccccc43)c2)cc1 [OSU03012] (first compound 0.004 µM, partner dose 1 µM)	75.9%	101%	140%	248%	113%	139%
C#Cc1cccc(Nc2ncnc3cc(OCCOC)c(OCCOC)cc23)c1 [erlotinib] + c1cc(-c2cnn3cc(-c4ccc(OCCN5CCCCC5)cc4)cnc23)ccn1 [Dorsomorphin] (first compound 0.8 µM, partner dose 0.4 µM)	202%	174%	125%	154%	94.7%	79.1%
C[C@]1(c2nc3c(C(N)=O)cccc3[nH]2)CCCN1 [Veliparib] + O=C(Nc1ccccc1)c1cc([N+](=O)[O-])ccc1Cl [GW9662] (first compound 1.4 µM, partner dose 2 µM)	304%	149%	123%	37.9%	106%	27.9%
Clc1ccc(Nc2nnc(Cc3ccncc3)c3ccccc23)cc1 [vatalanib] + CN(C)S(=O)(=O)c1ccc2c(c1)/C(=C/c1cc3c([nH]1)CCCC3)C(=O)N2 [SU6656] (first compound 2 µM, partner dose 0.4 µM)	307%	105%	102%	58.4%	101%	384%
CO[C@@H]1[C@H](N(C)C(=O)c2ccccc2)C[C@H]2O[C@]1(C)n1c3ccccc3c3c4c(c5c6ccccc6n2c5c31)C(=O)NC4 [Midostaurin] + CC(C)CCN1c2nc(Nc3cc(F)c(O)c(F)c3)ncc2N(C)C(=O)C1C [BID1870] (first compound 0.08 µM, partner dose 0.2 µM)	204%	115%	123%	34.7%	115%	43.4%
C#Cc1cccc(Nc2ncnc3cc(OCCOC)c(OCCOC)cc23)c1 [erlotinib] + COc1ccc(-c2ccc3c(N4CCOCC4)nc(N4C[C@@H](C)O[C@@H](C)C4)nc3n2)cc1CO [KU0063794] (first compound 0.8 µM, partner dose 0.02 µM)	89.8%	174%	139%	80.6%	216%	51.3%

For reference, part of the list above.
SMILES	cleaved PARP positive nuclei fraction (WM115)	cleaved PARP positive nuclei fraction (WM1716)	cleaved PARP positive nuclei fraction (WM1745)	cleaved PARP positive nuclei fraction (WM3526)	cleaved PARP positive nuclei fraction (WM3619)	cleaved PARP positive nuclei fraction (WM451Lu)
Cc1ccc(NC(=O)c2cccc(N(C)C)c2)cc1NC(=O)c1ccc(O)cc1 + CN(NC(=O)CC(=O)NN(C)C(=S)c1ccccc1)C(=S)c1ccccc1 [STA4783] (first compound 2 µM, partner dose 0.006 µM)	180%	171%	218%	67.5%	163%	55.5%
CC(C)(C)c1cnc(CSc2cnc(NC(=O)C3CCNCC3)s2)o1 + COc1ccc2c(c1)CCC1C2CCC2(C)C(NCCCCCCN3C(=O)C=CC3=O)CCC12 [U73122] (first compound 0.01 µM, partner dose 0.4 µM)	40.4%	148%	113%	69.5%	79%	105%
C[C@@H]1CCN(C(=O)CC#N)C[C@@H]1N(C)c1ncnc2[nH]ccc12 + COc1ccc2c(c1)CCC1C2CCC2(C)C(NCCCCCCN3C(=O)C=CC3=O)CCC12 [U73122] (first compound 1 µM, partner dose 0.4 µM)	215%	158%	147%	64%	76.1%	239%
OCCn1cc(-c2cnc3nnn(Cc4ccc5ncccc5c4)c3n2)cn1 + COc1cc2c(Oc3ccc4[nH]c(C)cc4c3F)ncnc2cc1OCCCN1CCCC1 [cediranib] (first compound 1 µM, partner dose 0.4 µM)	127%	152%	106%	36.2%	97.4%	58.2%
Cc1ccc(NC(=O)c2cccc(N(C)C)c2)cc1NC(=O)c1ccc(O)cc1 + NC(=O)Nc1cc(-c2cccc(F)c2)sc1C(=O)N[C@H]1CCCNC1 [AZD7762] (first compound 2 µM, partner dose 0.02 µM)	167%	101%	111%	80.9%	163%	81.8%
Cn1cncc1[C@@](N)(c1ccc(Cl)cc1)c1ccc2c(c1)c(-c1cccc(Cl)c1)cc(=O)n2C [tipifarnib] + O=C1NC(=O)/C(=C/c2ccc(-c3ccc(F)cc3O)o2)S1 [AS252424] (first compound 0.01 µM, partner dose 1 µM)	125%	140%	88.3%	81.8%	275%	57.2%
